Reference: PubChem BioAssay AID652272 (Drosophila RNAi Screening Center, 2013)
The deposit covers about 21,000 reagents; below is a random part of those with a known target gene and a result. In the full data, 503 (2.4%) are marked active. 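Raw plate light values, not normalised; calls rest on replicate z-scores that were not deposited; hits include reporter decreases as well as increases.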 Names joined by + are all predicted targets of the reagent. The record does not give: the amount of reagent, the time to read-out.

Screen: 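Genes whose knock-down decreases or increases Hedgehog reporter output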 (primary screen)
Cell system: Drosophila clone 8 (Cl8) cells
Reagents: long dsRNA against Drosophila genes
Detection: 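Firefly light from a Hedgehog-responsive ptc promoter reporter and Renilla reference light, both read on a plate reader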
Scale: firefly Hh reporter signal: higher = more ptc reporter light; Renilla reference signal: higher = more Renilla control light
Hit rule: 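Called a hit if the two-replicate mean z-score lies below -2 or above +3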
Calls: active = hit: reporter lowered or raised; inactive = not a hit

predicted target,dsRNA,"firefly Hh reporter signal, replicate 1","firefly Hh reporter signal, replicate 2","firefly Hh reporter signal, replicate 3","Renilla reference signal, replicate 1","Renilla reference signal, replicate 2",activity call
REPTOR (Repressed by TOR),DRSC14626,90976,1.07e5,,4208,3995,inactive
Sgs1 (Salivary gland secretion 1),DRSC00787,1.43e5,82971,,3607,7864,inactive
Sgs1 (Salivary gland secretion 1),DRSC00848,7.53e5,2.82e5,,34739,9792,inactive
CG7329,DRSC03046,1.31e5,50967,,3634,4664,inactive
Zip102B (Zinc/iron regulated transporter-related protein 102B),DRSC17155,1.59e5,4.10e5,,5895,13780,inactive
mTerf5 (mitochondrial transcription termination factor 5),DRSC16209,1.79e5,1.08e5,,6613,4441,inactive
Lk6 (Lk6 kinase),DRSC12867,46051,1.76e5,,10343,4250,inactive
Lk6 (Lk6 kinase),DRSC16728,1.47e5,95976,,6144,3949,inactive
bam (bag of marbles),DRSC16907,6.17e5,1.13e5,,35250,3558,inactive
CG12360 (retired record),DRSC14505,1.25e5,93744,,4139,2056,inactive
l(3)72Dp (lethal (3) 72Dp),DRSC10477,1.18e5,,,5763,3789,inactive
CG34149,DRSC14537,82800,88129,,3737,3526,inactive
CG15023,DRSC08477,69153,77069,,6354,5411,inactive
mAcon1 (Mitochondrial aconitase 1),DRSC01853,70240,55495,,1997,5283,inactive
Acsx2 (Acyl-CoA synthetase X2),DRSC14308,6.27e5,81968,,30122,2295,inactive
CG16762,DRSC08493,1.05e5,59611,,3444,4928,inactive
CG7448 (retired record),DRSC11828,1.27e5,1.02e5,,5741,4694,inactive
CG43136,DRSC17417,4.29e5,1.75e5,,25973,3976,inactive
Gdap1,DRSC10437,45530,50980,,3978,3461,inactive
Syn2 (Syntrophin-like 2),DRSC06902,77016,59707,,2299,4534,inactive
CG5969,DRSC11789,99954,66240,,5745,3921,active
CG4465,DRSC15584,7.87e5,1.53e5,,40716,4196,inactive
Spf45,DRSC03826,73440,53164,,2241,5456,inactive
CG13640,DRSC14639,4.66e5,86226,,23797,2880,inactive
CG12112,DRSC17809,1.68e5,1.29e5,,4064,3160,inactive
CG11291,DRSC04097,92279,48486,,2290,3632,inactive
Zip48C (Zinc/iron regulated transporter-related protein 48C),DRSC06314,84589,51509,,4038,2369,inactive
CG17570,DRSC01770,1.31e5,2.98e5,,3834,13094,inactive
CG17570,DRSC03754,92704,41884,,2516,3891,inactive
Polr3K + Tcs1,DRSC05988,1.22e5,62553,,3499,5011,inactive
CG42240,DRSC18097,1.08e5,54140,,2476,1386,inactive
CG3548,DRSC04387,71616,62114,,2946,2528,inactive
CG31778,DRSC00283,1.09e5,1.04e5,,3824,4598,inactive
CG34210,DRSC04579,1.09e5,74466,,2106,6977,inactive
dyl (dusky-like),DRSC08466,82194,47209,,4621,2593,inactive
dyl (dusky-like),DRSC08467,1.25e5,54304,,5376,295,inactive
lncRNA:sphinx (long non-coding RNA:sphinx),DRSC17199,77928,1.77e5,,1691,6029,inactive
CG4293,DRSC18557,1.01e5,86016,,2656,2874,inactive
STUB1 (STIP1 homology and U-box containing protein 1),DRSC03282,1.16e5,70902,,2908,5771,inactive
alc (alicorn),DRSC07062,1.28e5,81874,,2896,6359,inactive
Pex2 (Peroxin 2),DRSC10770,85136,98451,,4084,3408,inactive
CG18628,DRSC10328,96582,71184,90825,8433,7528,inactive
CG30440,DRSC04775,1.28e5,3.26e5,,2843,12713,inactive
CG30440,DRSC04845,1.13e5,62151,,2818,5350,inactive
CG30440,DRSC04855,58152,40449,,1593,4092,inactive
gl (glass),DRSC16957,6.71e5,1.43e5,,34868,3708,inactive
CG14245,DRSC14740,76325,1.00e5,,2193,3376,inactive
Edg84A (Ecdysone-dependent gene 84A),DRSC12594,63908,91799,,2487,2722,inactive
Cfp1 (CXXC finger protein 1),DRSC18128,43453,1.55e5,,1251,6336,inactive
atl (atlastin),DRSC16089,1.12e5,82043,,5024,3434,inactive
Cpr67Fb (Cuticular protein 67Fb),DRSC10314,50453,34963,59499,4547,3523,inactive
Papst2 (PAPS transporter 2),DRSC10924,91994,78168,,3906,3149,inactive
Sfp38D (Seminal fluid protein 38D),DRSC01810,1.36e5,2.46e5,,4016,11750,inactive
CG32846,DRSC08012,77670,1.56e5,,2343,6442,inactive
nur (nemuri),DRSC01342,4.04e5,2.49e5,,19105,10756,inactive
CG14907 + Mettl4,DRSC15026,75249,83709,,2297,2091,inactive
CG14907 + Mettl4,DRSC15027,65693,83140,,2288,2198,inactive
salto,DRSC06291,69773,37318,,2828,1549,inactive
CG7079,DRSC16192,5.37e5,94634,,27896,3120,inactive
CG4374,DRSC15570,7.18e5,1.35e5,,35235,3389,inactive
stl (stall),DRSC04396,80413,34064,,3552,1424,inactive
Cpr66D (Cuticular protein 66D),DRSC10640,18440,11623,,3073,1257,inactive
Cpr66D (Cuticular protein 66D),DRSC10646,18071,25017,,4692,2779,active
Ir7a (Ionotropic receptor 7a),DRSC17866,60272,2.23e5,,2330,8246,inactive
CG34328,DRSC19256,5.42e5,1.83e5,,31760,4278,inactive
MED10 (Mediator complex subunit 10),DRSC10474,1.29e5,,,5604,3329,inactive
Dhc36C (Dynein heavy chain at 36C),DRSC03315,1.34e5,72276,,3681,7056,inactive
"alpha-PheRS (Phenylalanyl-tRNA synthetase, alpha-subunit)",DRSC18224,64585,66412,,1376,1944,inactive
CG6262,DRSC06971,51676,31234,,1765,2064,inactive
mRpL9 (mitochondrial ribosomal protein L9),DRSC15678,58637,85079,,1418,1810,inactive
CG2121,DRSC06819,84807,94904,,3432,3728,inactive
CG2121,DRSC06820,1.21e5,55900,,3242,5305,inactive
CG3609,DRSC00620,86157,88842,,2064,2224,inactive
